# These are yes or no findings as the source states them, for the method shown.
# B1: human queuine tRNA-ribosyltransferase subunit 1 (QTRT1), catalytic subunit of tRNA guanine transglycosylase (enzyme, UniProt Q9BXR0 1-403)
# chain: MAGAATQASLESAPRIMRLVAECSRSRARAGELWLPHGTVATPVFMPVGTQATMKGITTEQLDALGCRICLGNTYHLGLRPGPELIQKANGLHGFMNWPHNLLTDSGGFQMVSLVSLSEVTEEGVRFRSPYDGNETLLSPEKSVQIQNALGSDIIMQLDDVVSSTVTGPRVEEAMYRSIRWLDRCIAAHQRPDKQNLFAIIQGGLDADLRATCLEEMTKRDVPGFAIGGLSGGESKSQFWRMVALSTSRLPKDKPRYLMGVGYATDLVVCVALGCDMFDCVFPTRTARFGSALVPTGNLQLRKKVFEKDFGPIDPECTCPTCQKHSRAFLHALLHSDNTAALHHLTVHNIAYQLQLMSAVRTSIVEKRFPDFVRDFMGAMYGDPTLCPTWATDALASVGITLG
# Target: human queuine tRNA-ribosyltransferase subunit 1 (QTRT1), catalytic subunit of tRNA guanine transglycosylase (human) (UniProt Q9BXR0)
# Experiment: crystal structure; two QTRT1 molecules in the asymmetric unit, space group C2; crystals grown from the purified heterodimer in 100 mM Tris pH 7.8, 200 mM KBr, 200 mM KSCN, 3% PGA-LM, 5% PEG 4000, 20 °C; both purified
binder,measurement,value
B1,binding,no binding

# — PMC6165067
